No constants are given. Whether binding was seen depends on the method and setting. Some binding calls cover weakened binding; strength is not graded here.
Legend:
[1] = molecular target: recombinant α5β1 integrin (immobilized, ELISA) (UniProt P08648); assay: ELISA, DV on immobilized α5β1 integrin (FIG. 13B)
[2] = molecular target: recombinant α5β1 integrin (immobilized, ELISA) (UniProt P08648); assay: summary sentence of Example 25 (ELISA, adhesion, migration, tube assays)

Protein sequences, listed by entry. Tags and fused reporters are not part of them. Lines headed by an entry give the natural chain unless they say otherwise; changes in a name come on top.
UniProt P08648: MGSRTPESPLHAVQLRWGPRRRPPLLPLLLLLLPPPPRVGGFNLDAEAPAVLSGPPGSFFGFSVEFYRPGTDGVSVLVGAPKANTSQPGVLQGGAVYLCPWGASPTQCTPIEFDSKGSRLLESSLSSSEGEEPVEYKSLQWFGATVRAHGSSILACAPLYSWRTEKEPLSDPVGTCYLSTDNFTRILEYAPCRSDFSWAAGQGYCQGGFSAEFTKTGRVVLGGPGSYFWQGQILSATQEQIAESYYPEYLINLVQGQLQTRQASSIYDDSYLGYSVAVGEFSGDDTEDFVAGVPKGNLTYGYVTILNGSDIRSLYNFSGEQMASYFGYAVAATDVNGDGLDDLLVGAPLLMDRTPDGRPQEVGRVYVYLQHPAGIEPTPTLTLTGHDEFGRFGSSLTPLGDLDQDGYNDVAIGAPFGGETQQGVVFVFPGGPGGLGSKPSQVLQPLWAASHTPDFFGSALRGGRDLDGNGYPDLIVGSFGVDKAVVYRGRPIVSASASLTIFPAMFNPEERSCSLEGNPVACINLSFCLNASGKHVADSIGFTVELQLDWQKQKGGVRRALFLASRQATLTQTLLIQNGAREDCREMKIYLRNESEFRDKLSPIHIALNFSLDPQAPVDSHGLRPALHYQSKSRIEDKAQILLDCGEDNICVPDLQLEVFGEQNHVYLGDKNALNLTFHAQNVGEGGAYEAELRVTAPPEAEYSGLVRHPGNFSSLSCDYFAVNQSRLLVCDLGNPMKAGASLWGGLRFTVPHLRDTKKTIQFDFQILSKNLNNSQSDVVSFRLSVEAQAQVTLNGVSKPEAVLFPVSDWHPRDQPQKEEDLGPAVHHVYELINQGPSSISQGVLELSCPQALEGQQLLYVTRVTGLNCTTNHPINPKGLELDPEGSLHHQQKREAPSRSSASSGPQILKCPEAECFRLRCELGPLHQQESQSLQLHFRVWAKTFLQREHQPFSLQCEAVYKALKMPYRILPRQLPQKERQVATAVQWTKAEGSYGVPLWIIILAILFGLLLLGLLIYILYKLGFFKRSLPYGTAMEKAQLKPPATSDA

- binding [1]: binds
- binding [2]: binds
B1: perlecan Domain V (recombinant, C-terminal 6×His tag) (ligand)
chain: EIKITFRPDSADGMLLYNGQKRVPGSPTNLANRQPDFISFGLVGGRPEFRFDAGSGMATIRHPTPLALGHFHTVTLLRSLTQGSLIVGDLAPVNGTSQGKFQGLDLNEELYLGGYPDYGAIPKAGLSSGFIGCVRELRIQGEEIVFHDLNLTAHGISHCPTCRDRPCQNGGQCHDSESSSYVCVCPAGFTGSRCEHSQALHCHPEACGPDATCVNRPDGRGYTCRCHLGRSGLRCEEGVTVTTPSLSGAGSYLALPALTNTHHELRLDVEFKPLAPDGVLLFSGGKSGPVEDFVSLAMVGGHLEFRYELGSGLAVLRSAEPLALGRWHRVSAERLNKDGSLRVNGGRPVLRSSPGKSQGLNLHTLLYLGGVEPSVPLSPATNMSAHFRGCVGEVSVNGKRLDLTYSFLGSQGIGQCYDSSPCERQPCQHGATCMPAGEYEFQCLCRDGFKGDLCEHEENPCQLREPCLHGGTCQGTRCLCLPGFSGPRCQQGSGHGIAESDWHLEGSGGNDAPGQYGAYFHDDGFLAFPGHVFSRSLPEVPETIELEVRTSTASGLLLWQGVEVGEAGQGKDFISLGLQDGHLVFRYQLGSGEARLVSEDPINDGEWHRVTALREGRRGSIQVDGEELVSGRSPGPNVAVNAKGSVYIGGAPDVATLTGGRFSSGITGCVKNLVLHSARPGAPPPQPLDLQHRAQAGANTRPCPSHHHHHH
notes: domain: domain V; Secreted from transfected 293FT cells and purified on Ni beads; also called DV; endorepellin
